Values joined by “and” are separate entries in the source; they are usually repeats but may differ in a detail not shown here. Equal values may be shown once. ± gives the standard deviation of the averaged measurements. Whole data set: some 3,800 compounds, median “cell shape (eccentricity) Z-score vs DMSO control” near 1.1, cut for the lowest 2% near -4.7. The list shows a part of the results.
test system: human monocyte-derived macrophages (M0); assay: cell shape (eccentricity) Z-score vs DMSO control; higher = more elongated, M2-like morphology; conditions: 20 µM; 24 h; macrophage state: M0 (M-CSF)

SMILES | cell shape (Z-score)
Cc1ccc(S(=O)(=O)NC(=O)NN2CCCCCC2)cc1 | 0.243
CCCCNCC1COc2ccccc2O1 (stereo not given) | 2.88
ClC(=Cn1cncn1)c1ccc(Cl)cc1Cl | 2.1
Cc1cccc(-c2nn3c(c2-c2ccnc4ccc(C(N)=O)cc24)CCC3)n1 | 1.89
c1cc2c(cc1C1CCCCC1)c1c3n2CCNC3CCC1 (stereo not given) | -2.39
CCCn1c(=O)[nH]c2nc(-c3ccc(S(=O)(=O)O)cc3)[nH]c2c1=O | 1.75
Oc1cccc2c(O)nccc12 | 0.28
CC[N+](CC)(CC(=O)Nc1c(C)cccc1C)Cc1ccccc1 | 1.74
COc1cc(NS(=O)(=O)c2ccc(N)cc2)nc(OC)n1 | -1.68
COc1cc2ccc(=O)oc2cc1O | -0.253
CC(=O)Oc1ccc2c(c1C(C)C)CCC1C(C)(C)CCC[C@]21C (stereo not given in full) | 4.36
COc1cc(C(C)C)c2c(c1)S(=O)(=O)N(COc1cc(=O)n3cccc(OCCN4CCCCC4)c3n1)C2=O | -0.675
OC(CN1CCN(c2cccc(Cl)c2)CC1)C(c1ccccc1)c1ccccc1 (stereo not given) | 1.49
Clc1cccc(Nc2nnc(-c3ccccc3)c3ccccc23)c1 | 0.91
O=C(O[C@@H]1Cc2c(O)cc(O)cc2O[C@@H]1c1cc(O)c(O)c(O)c1)c1cc(O)c(O)c(O)c1 | 7.36
Cn1c(=O)c2c(n(C)c1=O)n(C)c(=O)n2C | 0.458
CC(C)c1nc(N(C)S(C)(=O)=O)nc(-c2ccc(F)cc2)c1/C=C/[C@@H](O)C[C@@H](O)CC(=O)O | 2.64
CC(C)c1ccccc1Cc1cc(C(=O)Nc2ccc(S(=O)(=O)c3ccccc3C(C)(C)C)cc2)c(O)c(O)c1O | 13.4
Cc1cccc(Nc2cc(Cl)nc(SCC(=O)O)n2)c1C | -1.88
COc1cc2oc3cc(OC)c(OC)c(CC=C(C)C)c3c(=O)c2c(O)c1CC=C(C)C | 1.19
COc1ccc(-c2oc3cc(OC)c(OC)c(OC)c3c(=O)c2OC)cc1 | 2.61
CC(=O)N=c1sc(S(N)(=O)=O)nn1C | 1.52

SMILES | cell shape (Z-score)
COc1c(N2CCNC(C)C2)c(F)cc2c(=O)c(C(=O)O)cn(C3CC3)c12 (stereo not given) | 2.4
C/C=C(/C)C(=O)O[C@H]1C=C(C)C[C@H](OC(=O)c2ccc(O)cc2)C2[C@](O)(C(C)C)CC[C@@]21C (stereo not given in full) | -3.37
O=C1CC(c2ccc(O)c(O)c2)Oc2cc(O)ccc21 (stereo not given) | 3.13
O=C(O)c1c(Sc2ccccc2)c2cc(Cl)ccc2n1Cc1ccc(Cl)cc1 | 0.705
CCN1CCC(CNC(=O)c2cc(S(N)(=O)=O)ccc2OC)C1 (stereo not given) | 4.95
Cc1nc2ccc(NC(=O)Nc3ccnc4cccnc34)cc2o1 | 2.05
CC(=O)CCCCCCCc1[nH]c2ccccc2c(=O)c1O[C@@H]1O[C@H](CO)[C@@H](O)[C@H](O)[C@H]1O | 1.25
CCCCNc1ccc(C(=O)OCCN(C)C)cc1 | -0.157
C=CC1(C)C=C2CCC3C(C)(C)C(O[C@@H]4O[C@@H](CO)[C@H](O)[C@H]4O)CCC3(C)C2CC1O[C@@H]1O[C@H](C)[C@@H](OC)[C@H](O)[C@H]1O (stereo not given in full) | 1.89
COc1cc2c(c(OC)c1OC)-c1cc3c(cc1C[C@H]1C(=O)OC[C@@H]1C2)OCO3 | 0.816
O=Cc1ccccc1O[C@@H]1O[C@H](CO)[C@H](O)[C@@H](O)[C@H]1O | -0.838
O=C1[O][Pt][O]C(=O)C12CCC2 | 1.87 and 2
Cc1cc(O)c(Cc2c(O)cc(C)c(C=O)c2O)c(O)c1C | -1.37
COC(=O)C1=C(C)NC(C)=C(C(=O)OCCCN2CCC(c3ccccc3)(c3ccccc3)CC2)[C@@H]1c1cccc([N+](=O)[O-])c1 | 2.69
Cc1ccc(S(=O)(=O)NCc2ccccc2)cc1 | 2.12
Cc1cc(F)c(Nc2ncnc3cc(OCc4ccccc4)ccc23)cc1O | 4.02
O=C(OC1OC(CO)C(O)C(O)C1O)c1c(O)cc(O)cc1/C=C/c1ccccc1 (stereo not given) | -0.0388
N=C(N)NC(=O)Cc1c(Cl)cccc1Cl | -2.15
Cc1nc2c(O)cccc2c(=O)[nH]1 | 2.74
CC(C)NC(=N)NC(=N)Nc1ccc(Cl)cc1 | 0.874
O=C(/C=C/c1ccc(O)cc1)O[C@@H]1CC(O)(C(=O)O)C[C@@H](OC(=O)/C=C/c2ccc(O)cc2)C1O (stereo not given in full) | 1.02
Cc1nccn1CC1CCC2C(C1=O)c1ccccc1N2C (stereo not given) | 3.91

SMILES | cell shape (Z-score)
CC[C@H](C)C(=O)O[C@H]1C[C@H](O)C=C2C=C[C@H](C)[C@H](CC[C@@H](O)C[C@@H](O)CC(=O)O)[C@H]21 | -0.136 ± 1.9
O=C(CCc1ccccc1)c1c(O)cc(O)cc1O | 0.3
COC(=O)C1=C(C)NC(C)=C(C(=O)OCCCN2CCC(c3ccccc3)(c3ccccc3)CC2)[C@H]1c1cccc([N+](=O)[O-])c1 | 1.82
C=C(C)C1CC=C(CO)CC1 (stereo not given) | 0.825
CC(CC(N)=O)OC(=O)c1cc(Cl)cc(O)c1O (stereo not given) | 0.335
Oc1ccc([C@@H]2Oc3cc(O)cc(O)c3C[C@@H]2O)cc1 | 0.853
CON=C(C(=O)N[C@@H]1C(=O)N2C(C(=O)OCOC(=O)C(C)(C)C)=C(C=Cc3scnc3C)CS[C@H]12)c1csc(N)n1 | -0.797
O=C1NC(=O)/C(=C/c2ccc3nccc(-c4ccncc4)c3c2)S1 | -3.86
C=C1C(=O)O[C@H]2C1CCC(C)=C1C(=O)C=C(C)[C@@H]12 (stereo not given in full) | -3.7
CCCCCCCCNC(C)C(O)c1ccc(SC(C)C)cc1 (stereo not given) | -1.8
COc1cc(CCC(O)CC(O)CCc2ccc(O)c(O)c2)ccc1O (stereo not given) | 0.343
O=c1oc2cc(O)ccc2c2oc3cc(O)ccc3c12 | 2.46
Nc1nc2c(cnn2CCc2ccccc2)c2nc(-c3ccco3)nn12 | -0.0713
CC1=CC(=O)C2C(C)(C)CCC[C@]2(C)[C@@]1(O)CCc1ccoc1 (stereo not given in full) | -0.0485
CN(C)CCCN1c2ccccc2CCc2ccccc21 | 2.02
COc1ccc2c(c1)OCC(Cc1ccc(OC)c(OC)c1)C2=O (stereo not given) | 2.38
Cc1cc(O)cc(=O)o1 | 5.41
NS(=O)(=O)c1cc(C2(O)NC(=O)c3ccccc32)ccc1Cl (stereo not given) | 2
CCCS(=O)(=O)Nc1ccc(F)c(C(=O)c2c[nH]c3ncc(Cl)cc23)c1F | 0.727
C=C1C(=O)C23CC(O)C4C(C)(C(=O)OC5OC(CO)C(O)C(O)C5O)CCCC4(C)C2=CCC1(O)C3 (stereo not given) | -0.91
COc1cc(C2OCC3C(c4cc(OC)c5c(c4)OCO5)OCC23)cc(OC)c1OC (stereo not given) | -2.6

A draw from above in order of number of heavy atoms, smallest number first.
SMILES | cell shape (Z-score)
Cc1cc(O)cc(=O)o1 | 5.41
C=C(C)C1CC=C(CO)CC1 (stereo not given) | 0.825
CC(CC(N)=O)OC(=O)c1cc(Cl)cc(O)c1O (stereo not given) | 0.335
O=C(CCc1ccccc1)c1c(O)cc(O)cc1O | 0.3
O=c1oc2cc(O)ccc2c2oc3cc(O)ccc3c12 | 2.46
CN(C)CCCN1c2ccccc2CCc2ccccc21 | 2.02
NS(=O)(=O)c1cc(C2(O)NC(=O)c3ccccc32)ccc1Cl (stereo not given) | 2
COc1ccc2c(c1)OCC(Cc1ccc(OC)c(OC)c1)C2=O (stereo not given) | 2.38
Nc1nc2c(cnn2CCc2ccccc2)c2nc(-c3ccco3)nn12 | -0.0713
CCCS(=O)(=O)Nc1ccc(F)c(C(=O)c2c[nH]c3ncc(Cl)cc23)c1F | 0.727
CC[C@H](C)C(=O)O[C@H]1C[C@H](O)C=C2C=C[C@H](C)[C@H](CC[C@@H](O)C[C@@H](O)CC(=O)O)[C@H]21 | -0.136 ± 1.9
COc1cc(C2OCC3C(c4cc(OC)c5c(c4)OCO5)OCC23)cc(OC)c1OC (stereo not given) | -2.6
